# “And” between values parts separate entries of the source, which are not always exact repeats. Equal entries are not always repeated. Screen size: about 240,000 compounds; about 1,300 (0.54%) were called active. This list was built around the results that the source calls inconclusive (neither active nor inactive); the mix of calls is not that of the screen. Calls follow the shape of the dose curve; as a rule, active = well fitted inhibition curve with a large enough effect; inconclusive = small, poorly fitted or top-dose-only effect; inactive = flat fitted curve, though single readings scatter. A potency beside an inconclusive call is a rough fit, not a confirmed value. Some structures have more than one record in an assay (separate samples or runs), and their calls can disagree.
# Chains of the proteins cited; added tags and fusions are not shown. Lines headed by an entry give the natural chain unless they say otherwise; changes in a name come on top.
# UniProt P46063: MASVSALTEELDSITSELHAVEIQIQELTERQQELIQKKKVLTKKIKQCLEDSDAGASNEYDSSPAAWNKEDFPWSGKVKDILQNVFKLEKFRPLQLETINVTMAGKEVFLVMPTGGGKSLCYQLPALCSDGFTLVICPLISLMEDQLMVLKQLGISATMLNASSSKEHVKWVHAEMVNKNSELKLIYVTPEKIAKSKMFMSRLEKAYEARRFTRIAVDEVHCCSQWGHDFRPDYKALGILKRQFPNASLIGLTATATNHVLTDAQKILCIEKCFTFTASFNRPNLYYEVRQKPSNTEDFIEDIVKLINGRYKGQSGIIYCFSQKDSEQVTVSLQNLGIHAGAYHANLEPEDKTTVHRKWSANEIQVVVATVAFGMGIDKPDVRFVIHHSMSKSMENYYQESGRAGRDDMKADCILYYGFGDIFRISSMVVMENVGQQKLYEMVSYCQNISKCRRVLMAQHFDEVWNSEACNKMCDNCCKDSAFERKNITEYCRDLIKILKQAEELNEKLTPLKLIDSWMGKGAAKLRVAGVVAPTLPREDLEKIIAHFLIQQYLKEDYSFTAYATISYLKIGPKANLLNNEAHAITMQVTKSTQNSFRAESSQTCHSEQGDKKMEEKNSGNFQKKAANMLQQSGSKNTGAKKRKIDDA
# Target: ATP-dependent DNA helicase Q1 (Homo sapiens) (UniProt P46063)
# Assay: qHTS Assay for Inhibitors of RecQ-Like Dna Helicase 1 (RECQ1); also: nearly all actives have a fitted effect of over 30% in size;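 as to activity, negative = inhibition: plate controls were vehicle for no effect and no enzyme for full effect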
# Conditions: RECQ1 DNA unwinding, red fluorescence kinetic read; series mostly up to 57.3 µM; activity, negative = inhibition: at the top concentration
# Method in brief: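 50 nM RECQ1T1 preincubated 15 min with compound in Tris pH 8.0 buffer with MgCl2, DTT, Tween-20 and 2.5 ug/ml poly(dI-dC); started with 200 nM TAMRA/BHQ-2 forked duplex and 2 mM ATP. Unwinding read as fluorescence (525/598 nm), two reads 2 h apart.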
# Potency is read from the fitted curve at half-maximal effect.
Structure (SMILES),Potency,"activity, negative = inhibition",outcome
C=CCN1C(=O)NC(=O)/C(=C/c2cc3c4c(c2)CCCN4CCC3)C1=O,active: 31.6 µM,,
CC(CO)(CO)N=Cc1c(O)n(-c2cccc3ccccc23)c(=O)[nH]c1=O,,inactive: 10.2%,
CN1C(=O)/C(=C/C=C/c2ccco2)C(=O)NC1=S,"inconclusive: 35.5 µM [inhibitor, single point]",,
O=NN(CCO)CCO,,inactive: -15.3%,
CCCCC(=O)N/N=C/c1c(O)n(Cc2ccco2)c(=O)[nH]c1=O,active: 31.6 µM,,
CC[C@@]1(O)C(=O)OCc2c1cc1n(c2=O)Cc2cc3c(O)cccc3nc2-1,"inconclusive: 22.4 µM [inhibitor, partial curve, poor fit]",,
O=C(O)c1ccccc1-c1nc2ccccc2n1-c1ccccc1,active: 11.2 µM,,
CC(=O)Nc1ccc(N=Cc2c(O)n(Cc3ccco3)c(=O)[nH]c2=O)cc1,"inconclusive: 39.8 µM [inhibitor, single point]",,
CCN(CC)C(=O)N[C@@H]1C=C2c3cccc4[nH]cc(c34)C[C@H]2N(C)C1,"inconclusive: 7.08 µM [inhibitor, full curve, poor fit]",,
CC(n1cc(C[C@H](N)C(=O)O)c2ccccc21)n1cc(C[C@H](N)C(=O)O)c2ccccc21,"inconclusive: 31.6 µM [inhibitor, partial curve]",,
COc1ccccc1-n1c(O)c(/C=N/N2CCCCC2)c(=O)n(-c2ccccc2OC)c1=S,,inactive: -0.888%,
O=C1NC(=O)N(Cc2ccco2)C(=O)/C1=C\c1cccn1CCOc1ccc(Cl)cc1,"inconclusive: 31.6 µM [inhibitor, single point]",,
CN1C(=O)/C(=C/c2cccn2-c2ccc3ccccc3c2)C(=O)NC1=S,"inconclusive: 35.5 µM [inhibitor, single point]",,
CC(Cc1ccc(C(C)(C)C)cc1)CN1CCCCC1 (stereo unspecified),,inactive: -1.72%,
O=C1NC(=O)N(Cc2ccco2)C(=O)/C1=C/C=C/c1ccco1,active: 10 µM,,
C[C@]12CC[C@@H]3c4ccc(O)c(O)c4CC[C@H]3[C@@H]1CC[C@@H]2O,,inactive: -6.49%,
O=C1C=Cc2ccccc2C1=O,active: 28.2 µM,,
CCS(=O)(=O)N1N=C(c2cccc(NS(C)(=O)=O)c2)CC1c1ccccc1 (stereo unspecified),active: 35.5 µM,,
O=C1NC(=O)N(Cc2ccccc2)C(=O)/C1=C\c1ccco1,"inconclusive: 35.5 µM [inhibitor, single point]",,
CCCC1C(C#N)=C(N)Oc2c1c(=O)oc1ccccc21 (stereo unspecified),,inactive: -4.49%,
CN1C(=O)N(C)C(=O)C2(Cc3c(ccc4ccccc34)N(C)C2)C1=O,,inactive: 5.81%,
CCOC(=O)C1CCCN(c2ccc([N+](=O)[O-])c3nonc23)C1 (stereo unspecified),active: 28.2 µM,,
O=c1c(O)c(-c2ccc(O)c(O)c2)oc2cc(O)cc(O)c12,active: 1.41 µM and active: 2.51 µM and active: 1.78 µM,,

Structure (SMILES),Potency,"activity, negative = inhibition",outcome
COC1C(OC(=O)c2ccc(C)[nH]2)C(O)C(Oc2ccc3c(O)c(NC(=O)c4ccc(O)c(CC=C(C)C)c4)c(=O)oc3c2Cl)OC1(C)C (stereo unspecified),"inconclusive: 35.5 µM [inhibitor, single point]",,
O=C1NC(=O)N(CC2CCCO2)C(=O)/C1=C/c1cccs1 (stereo unspecified),,inactive: 3.3%,
CCn1nc(-c2cccs2)nc2c(=O)n(C)c(=O)nc1-2,active: 3.55 µM,,
O=C(O)Cn1cc(/C=C2\C(=O)NC(=O)N(Cc3ccco3)C2=O)c2ccccc21,active: 14.1 µM,,
Cc1cccc(N2C(=O)NC(=O)/C(=C\c3ccc4c(c3)CCCN4Cc3ccccc3)C2=O)c1,active: 31.6 µM,,
OCC[n+]1c2ccccc2nc2ccc(N3CCOCC3)cc21,active: 12.6 µM,,
COC[C@H]1OC(=O)c2coc3c2[C@@]1(C)C1=C(C3=O)[C@H]2CCC(=O)[C@@]2(C)C[C@H]1OC(C)=O,active: 12.6 µM,,
CCn1c(O)c(C=NCc2ccccc2)c(=O)[nH]c1=S,,inactive: -1.05%,
Clc1ccc(C(c2ccc(Cl)cc2)n2cc[n+](CC(OCc3ccc(Cl)cc3Cl)c3ccc(Cl)cc3Cl)c2)cc1 (stereo unspecified),"inconclusive: 25.1 µM [inhibitor, single point]",,
C=C1C/C(=C/C)C(=O)O[C@@H]2CCN3CC=C(COC(=O)[C@]1(C)O)[C@@H]23,"inconclusive: 39.8 µM [inhibitor, single point]",,
COc1ccc(CN2C(=O)NC(=O)/C(=C/c3ccc([N+](=O)[O-])o3)C2=O)cc1,active: 10 µM,,
Cc1ccc(OCCn2cccc2/C=C2/C(=O)NC(=O)N(Cc3ccco3)C2=O)cc1,"inconclusive: 28.2 µM [inhibitor, single point]",,
O=C(CSC1c2ccccc2-c2ccccc21)N/N=C/c1ccccc1C(=O)O,,,inactive
COc1cccc(N2C(=O)NC(=O)/C(=C\c3ccc([N+](=O)[O-])s3)C2=O)c1,active: 22.4 µM,,
O=c1[nH]c(=S)[nH]c(O)c1N=Nc1ccc(-c2ccccc2)cc1[N+](=O)[O-],"inconclusive: 39.8 µM [inhibitor, single point]",,
Cc1ccc(N)c(C)c1,,inactive: -0.273%,
Cc1cccc(N2C(=O)NC(=O)/C(=C/c3ccc(-c4ccc(C(=O)O)c(Cl)c4)o3)C2=O)c1,,inactive: 1.88%,
CN(C)[C@@H]1C(=O)C(C(N)=O)=C(O)[C@@]2(O)C(=O)C3=C(O)c4c(O)cccc4[C@@](C)(O)[C@H]3[C@H](O)[C@@H]12,active: 11.2 µM,,
Cc1cccc2c3c(ccc12)C1=C(C(=O)C3=O)C(C)CO1 (stereo unspecified),"inconclusive: 39.8 µM [inhibitor, single point]",,
CNc1ccc2oc(C[C@@H]3OC4(CC[C@@H]3C)O[C@H]([C@@H](C)C(=O)c3ccc[nH]3)[C@H](C)C[C@H]4C)nc2c1C(=O)O (stereo partly specified),"inconclusive: 39.8 µM [inhibitor, single point]",,
Cc1cc(/C=C2\C(=O)NC(=O)N(c3ccc(Cl)cc3)C2=O)c(C)n1-c1sc2c(c1C#N)CCCC2,"inconclusive: 35.5 µM [inhibitor, single point]",,
O=C1C=CC(=O)C=C1,"inconclusive: 39.8 µM [inhibitor, single point]",,
CN1C(=O)C(=Cc2ccc(N3CCCCCC3)cc2)C(=O)N(C)C1=O,"inconclusive: 35.5 µM [inhibitor, single point]",,

# Three entries already listed, ordered by count of non-hydrogen atoms, high to low:
Structure (SMILES),Potency,"activity, negative = inhibition",outcome
CCS(=O)(=O)N1N=C(c2cccc(NS(C)(=O)=O)c2)CC1c1ccccc1 (stereo unspecified),active: 35.5 µM,,
O=c1[nH]c(=S)[nH]c(O)c1N=Nc1ccc(-c2ccccc2)cc1[N+](=O)[O-],"inconclusive: 39.8 µM [inhibitor, single point]",,
O=C1NC(=O)N(Cc2ccccc2)C(=O)/C1=C\c1ccco1,"inconclusive: 35.5 µM [inhibitor, single point]",,

# — PubChem BioAssay AID2549 (National Center for Advancing Translational Sciences (NCATS), 2010)
